This is an account of results in article PMC5564716.

Protein sequences, listed by entry. Tags and fused reporters are not part of them.
UniProt Q12888: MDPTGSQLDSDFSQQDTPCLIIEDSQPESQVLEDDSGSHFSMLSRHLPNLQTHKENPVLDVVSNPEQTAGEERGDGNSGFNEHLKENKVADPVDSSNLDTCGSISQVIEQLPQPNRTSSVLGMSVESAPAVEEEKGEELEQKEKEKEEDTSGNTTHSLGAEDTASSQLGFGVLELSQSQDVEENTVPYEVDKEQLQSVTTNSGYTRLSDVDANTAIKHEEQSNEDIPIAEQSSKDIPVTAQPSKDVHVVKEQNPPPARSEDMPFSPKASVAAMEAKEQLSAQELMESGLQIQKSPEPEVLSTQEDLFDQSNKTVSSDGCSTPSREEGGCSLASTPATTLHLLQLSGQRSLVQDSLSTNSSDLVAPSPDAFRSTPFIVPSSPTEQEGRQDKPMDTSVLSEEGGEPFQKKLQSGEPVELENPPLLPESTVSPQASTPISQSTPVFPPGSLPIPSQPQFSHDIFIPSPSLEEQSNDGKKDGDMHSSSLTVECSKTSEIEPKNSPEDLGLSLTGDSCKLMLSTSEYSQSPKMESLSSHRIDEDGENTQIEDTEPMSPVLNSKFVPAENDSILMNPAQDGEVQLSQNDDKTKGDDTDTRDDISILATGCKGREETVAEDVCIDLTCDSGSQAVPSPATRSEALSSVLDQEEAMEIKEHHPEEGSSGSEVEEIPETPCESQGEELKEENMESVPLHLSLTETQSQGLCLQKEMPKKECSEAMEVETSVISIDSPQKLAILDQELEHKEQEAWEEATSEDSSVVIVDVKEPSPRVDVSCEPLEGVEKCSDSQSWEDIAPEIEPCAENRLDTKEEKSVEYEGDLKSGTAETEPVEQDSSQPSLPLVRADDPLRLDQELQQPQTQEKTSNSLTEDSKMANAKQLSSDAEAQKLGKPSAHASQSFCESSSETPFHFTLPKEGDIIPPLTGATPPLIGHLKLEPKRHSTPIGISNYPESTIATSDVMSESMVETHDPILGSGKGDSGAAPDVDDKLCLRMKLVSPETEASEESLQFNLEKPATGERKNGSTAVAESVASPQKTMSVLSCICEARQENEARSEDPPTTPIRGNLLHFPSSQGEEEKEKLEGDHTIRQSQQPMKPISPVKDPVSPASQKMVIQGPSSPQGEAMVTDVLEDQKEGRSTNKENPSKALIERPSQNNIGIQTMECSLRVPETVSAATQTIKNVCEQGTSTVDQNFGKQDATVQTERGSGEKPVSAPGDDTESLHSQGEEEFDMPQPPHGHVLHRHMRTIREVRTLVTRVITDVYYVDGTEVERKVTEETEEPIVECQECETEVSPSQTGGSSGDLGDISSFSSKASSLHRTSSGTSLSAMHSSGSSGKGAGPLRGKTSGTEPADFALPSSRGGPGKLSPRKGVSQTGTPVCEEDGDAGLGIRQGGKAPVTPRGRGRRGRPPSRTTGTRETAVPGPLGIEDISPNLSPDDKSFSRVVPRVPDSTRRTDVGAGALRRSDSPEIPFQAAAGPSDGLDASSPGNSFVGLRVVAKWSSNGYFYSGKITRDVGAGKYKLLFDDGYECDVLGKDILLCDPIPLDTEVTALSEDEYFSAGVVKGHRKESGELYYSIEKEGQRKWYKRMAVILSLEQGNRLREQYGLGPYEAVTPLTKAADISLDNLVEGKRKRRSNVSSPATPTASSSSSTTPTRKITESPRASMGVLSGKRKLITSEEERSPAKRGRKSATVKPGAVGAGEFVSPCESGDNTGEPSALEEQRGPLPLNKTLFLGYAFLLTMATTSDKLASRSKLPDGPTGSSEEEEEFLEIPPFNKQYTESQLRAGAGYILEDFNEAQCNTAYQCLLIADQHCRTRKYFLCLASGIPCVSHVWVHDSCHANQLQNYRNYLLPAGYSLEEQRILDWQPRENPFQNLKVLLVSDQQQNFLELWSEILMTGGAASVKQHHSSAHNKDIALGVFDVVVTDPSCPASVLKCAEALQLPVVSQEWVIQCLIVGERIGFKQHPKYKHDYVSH

In this experiment the target is T1, mitotic centromere-associated kinesin (MCAK), endogenous (human (endogenous in human cells)) (UniProt Q99661).
T1 sequence: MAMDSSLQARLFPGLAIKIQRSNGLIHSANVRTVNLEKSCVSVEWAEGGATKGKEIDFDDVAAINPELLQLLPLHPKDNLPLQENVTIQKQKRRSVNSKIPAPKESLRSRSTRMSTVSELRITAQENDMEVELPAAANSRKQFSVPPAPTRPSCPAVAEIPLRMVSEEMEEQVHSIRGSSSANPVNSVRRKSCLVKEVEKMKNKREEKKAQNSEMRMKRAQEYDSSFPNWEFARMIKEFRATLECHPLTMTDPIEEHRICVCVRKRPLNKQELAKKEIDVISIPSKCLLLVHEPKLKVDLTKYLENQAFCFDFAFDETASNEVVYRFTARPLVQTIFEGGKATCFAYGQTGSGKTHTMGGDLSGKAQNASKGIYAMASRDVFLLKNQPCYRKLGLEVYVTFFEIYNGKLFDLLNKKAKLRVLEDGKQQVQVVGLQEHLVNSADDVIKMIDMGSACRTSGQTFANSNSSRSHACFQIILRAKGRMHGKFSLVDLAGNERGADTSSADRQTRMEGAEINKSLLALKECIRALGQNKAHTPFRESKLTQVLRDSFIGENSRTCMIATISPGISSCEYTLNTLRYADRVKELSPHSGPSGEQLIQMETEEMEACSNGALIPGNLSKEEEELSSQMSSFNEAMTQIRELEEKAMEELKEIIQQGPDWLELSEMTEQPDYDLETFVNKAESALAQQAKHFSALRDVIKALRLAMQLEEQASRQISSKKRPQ
The experiment is described as follows: co-IP; endogenous immunoprecipitation of 53BP1 or MCAK from extracts of unsynchronized or NOC-synchronized mitotic cells, immunoblotting. For orientation: In western blotting, separated proteins are transferred to a membrane and probed.

These are yes or no findings as the source states them, for the method shown. In cells and extracts the contact can be indirect. Some entries that bind do so weakly or less than the wild type.

In the case of “tumor suppressor p53-binding protein 1 (53BP1), endogenous (from UniProt Q12888 1-1972)”, the binding entry was “binds”.
